Measured values from patent US7235531B2 (Takeda Pharmaceutical Company, priority 1999, dated 2007).

Assay: Boc solid-phase peptide synthesis; p-methyl BHA resin; NMP-HOBt
Settings: whole synthesis, scale 0.14 g resin cleaved (0.5 mmol synthesis)

TGKASQFFGLM-NH2
isolated mass: 26 mg

No end group written: not given here.
